# Laboratory results reported in the supplement of paper PMC3334620.
# Whole data set: some 33,000 sequences, median “E-score (-0.5 to 0.5)” near -0.015, cut for the highest 2% near 0.3. Some of the results follow.
# Biological target: T1, Abf1 (UniProt P14164)
# T1 sequence: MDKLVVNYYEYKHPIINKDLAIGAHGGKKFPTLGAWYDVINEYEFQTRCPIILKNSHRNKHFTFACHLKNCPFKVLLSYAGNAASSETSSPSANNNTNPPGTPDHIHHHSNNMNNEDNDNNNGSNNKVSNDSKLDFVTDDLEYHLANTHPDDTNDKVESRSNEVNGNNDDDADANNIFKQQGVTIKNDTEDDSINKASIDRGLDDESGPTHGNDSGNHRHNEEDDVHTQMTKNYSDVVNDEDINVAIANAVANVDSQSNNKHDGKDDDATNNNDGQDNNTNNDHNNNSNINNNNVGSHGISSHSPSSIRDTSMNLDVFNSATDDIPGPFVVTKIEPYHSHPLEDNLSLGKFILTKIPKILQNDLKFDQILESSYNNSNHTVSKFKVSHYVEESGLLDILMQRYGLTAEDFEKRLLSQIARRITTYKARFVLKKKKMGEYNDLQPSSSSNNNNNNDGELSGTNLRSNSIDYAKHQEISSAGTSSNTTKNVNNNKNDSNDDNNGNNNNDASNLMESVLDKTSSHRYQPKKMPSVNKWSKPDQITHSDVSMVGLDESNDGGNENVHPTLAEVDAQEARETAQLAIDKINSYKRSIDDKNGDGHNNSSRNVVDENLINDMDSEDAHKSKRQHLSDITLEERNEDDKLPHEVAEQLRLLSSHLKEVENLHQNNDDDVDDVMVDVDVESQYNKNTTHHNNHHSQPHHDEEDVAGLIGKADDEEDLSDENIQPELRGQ
# Test: PBM E-score (8-mer binding enrichment) (E-score (-0.5 to 0.5)); higher = stronger / more preferred TF binding
# Conditions: protein concentration: 200 nM; construct: GST-full length
# Procedure, shortened: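 Yeast transcription factors, full-length or as DNA-binding domains, were expressed with a GST tag using PURExpress in vitro transcription/translation. At about 100-200 nM they were applied to universal all-10-mer Agilent arrays, double-stranded by primer extension on fresh or once-stripped slides. Fluorescent anti-GST detected bound protein, and masliner normalised the scans. E-scores for ungapped eight-base words, pooled with reverse complements, came from the Universal PBM Analysis Suite.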
row,Sequence,PBM E-score
1,CAGGCAGG,-0.0674
2,AGTGTCGG,-0.174
3,CCTGTACG,0.206
4,CAATCGGA,-0.00152
5,CACGTCGG,0.153
6,CACGCCAA,-0.133
7,GACGTATA,0.249
8,ACGTCAGT,0.104
9,GATGAGGC,-0.194
10,AGTGGTTC,-0.213
11,TTACCAAA,0.0197
12,ATAAAAGC,0.0449
13,GCCTCTAC,-0.251
14,GAAGCGCA,-0.203
15,ACCGATAA,0.0741
16,AGCCCTTA,-0.224
17,GTCGTAAC,0.229
18,GGTAATAC,0.099
19,ATAAGTTA,0.0278
20,AGGGTCAA,-0.0486
21,CCAGCAGC,-0.186
22,AGCTCTAC,-0.161

row,Sequence,PBM E-score
1,CTGTAGTC,-0.0381
2,ACTAGCAG,-0.0118
3,ATGCTGCC,-0.123
4,CCGAGAAA,0.0386
5,GAATTCCC,-0.0895
6,CCTTGCCA,0.0541
7,ATACTAAG,0.14
8,CAACCATA,0.0134
9,CTCAGTCC,-0.0697
10,CGCGTGCA,-0.191
11,CGAATCAA,0.101
12,CAGCTATA,-0.191
13,CCGTGTAG,0.198
14,GCGTAAGC,-0.15
15,ATGCATAG,-0.0232
16,CGCTAAGA,-0.0828
17,CCCCAGAG,-0.297
18,ACCCACTC,-0.18
19,AATTGACT,-0.00646
20,AAAGGTGT,0.0232
21,CAGGACTC,-0.117
22,CCTTATTA,0.0454

row,Sequence,PBM E-score
1,AAGGCATT,-0.0671
2,GACGACGC,0.3
3,CGTGTCAC,0.327
4,CACGTACC,0.0446
5,ATCGGCCA,-0.159
6,ACCAGCCA,-0.0621
7,ATACGTCA,0.204
8,ACCTCCCA,-0.307
9,ATGTTCTA,0.0983
10,AAACTTGC,-0.0788
11,AGCGGTCG,-0.0708
12,ACCCACAA,0.0306
13,GACTGACC,-0.231
14,CAACTCGG,-0.115
15,TCCATTCA,0.0175
16,AGAGCAGC,-0.152
17,CCGTCGGA,0.199
18,GGCTGCTA,-0.201
19,AGTGCCAT,-0.185
20,GACCAATA,0.00655
21,GCACTAGC,-0.124
22,CCGCCCTC,-0.334

# Part of the list above in a different format.
row | Sequence | PBM E-score
1 | AAGGCATT | -0.0671
2 | GACGACGC | 0.3
3 | CGTGTCAC | 0.327
4 | CACGTACC | 0.0446
5 | ATCGGCCA | -0.159
6 | ACCAGCCA | -0.0621
7 | ATACGTCA | 0.204
8 | ACCTCCCA | -0.307
9 | ATGTTCTA | 0.0983
10 | AAACTTGC | -0.0788
11 | AGCGGTCG | -0.0708
12 | ACCCACAA | 0.0306
13 | GACTGACC | -0.231
14 | CAACTCGG | -0.115
15 | TCCATTCA | 0.0175
16 | AGAGCAGC | -0.152
17 | CCGTCGGA | 0.199
18 | GGCTGCTA | -0.201
19 | AGTGCCAT | -0.185
20 | GACCAATA | 0.00655
21 | GCACTAGC | -0.124

# Later entries

row,Sequence,PBM E-score
1,CTAGCTGC,-0.114
2,CAAGTTTC,-0.0682
3,ACCATGCT,-0.0859
4,AATTTTAT,0.189
5,ACCAATGA,0.104
6,CACCATTC,-0.0603
7,AGGAGTAC,-0.208
8,AATAAGAG,0.0298
9,CCCAAGGG,-0.248
10,GTGACGAA,0.315
11,ACCGGGAC,-0.144
12,ATAGTTGG,-0.149
13,AGTCCGAA,0.00015
14,GCTGTGAA,0.0318
15,CCTTGCAA,-0.234
16,TGCGTAAA,0.0704
17,TATGCTCA,0.174
18,ATGTCCAA,0.0558
19,AGTAGTCG,0.00062
20,CCCAACCA,-0.0515
21,ACAGGTTA,-0.182
22,ATTCAAAC,0.0296

row,Sequence,PBM E-score
1,ACGGGAGA,-0.13
2,AATTCATC,0.0238
3,GTTCACCA,0.0848
4,GAAAACCC,0.0491
5,GCGAAGAC,-0.316
6,CGTTCTTC,0.0689
7,AGCCCCAG,-0.186
8,AATGAGCA,0.112
9,GATATTGC,0.118
10,CCCCACCG,-0.232
11,GATAATAA,0.24
12,CGGAAGTA,-0.0352
13,CGGGCATC,-0.0382
14,CGCTAAAC,0.123
15,CAGTAAGC,-0.0498
16,ATGCCCAG,-0.269
17,CCGTAGAG,0.102
18,GCCGAAGC,-0.185
19,AGGTGCCG,-0.0483
20,CCAGCCAA,0.029
21,AGCTCACT,-0.133
22,AGCTATCG,0.0623
